PubChem BioAssay AID1224830 – NIAID, 2016

Aim: 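Genes whose knock-down alters the TNF-alpha reporter response to LPS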 (primary screen)
System: human THP-1 monocytic leukaemia cells, TNF dual-luciferase reporter clone, PMA-differentiated to macrophage-like cells
Reagent: siRNA pool against human genes, 50 nM
Duration: LPS for 4 h, given about 3 days after siRNA transfection
Challenge: bacterial LPS (TLR4 ligand), 10 ng/ml
Detection: 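Ratio of firefly to renilla light, scaled to the plate median and expressed as a robust z-score per replicate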
Direction: TNF reporter robust z-score: higher = stronger TNF reporter response to LPS
Call rule: 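Each well counts as active if its z-score is over 2.8 or under -1.5; controls are left without a call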
Here is one part, drawn at random, of about 18,000 reagents tested. Over the whole deposit, about 2,900 (16%) got an active call. 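Calls are made per well; low scores hint the gene aids the LPS response, high scores that it dampens it.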 A number with no mark means an inactive call. Repeated entries: four replicate wells of each siRNA pool.

MAB21L1 [SID315449837] | TNF reporter robust z-score: -1.66 (active)
MAB21L1 [SID315449837] | TNF reporter robust z-score: 0.22
MAB21L1 [SID315449837] | TNF reporter robust z-score: 0.09
MAB21L1 [SID315449837] | TNF reporter robust z-score: 0.38
OR4F29 [SID315465210] | TNF reporter robust z-score: -0.42
OR4F29 [SID315465210] | TNF reporter robust z-score: 0.6
OR4F29 [SID315465210] | TNF reporter robust z-score: -0.15
OR4F29 [SID315465210] | TNF reporter robust z-score: 1.56
RSAD2 [SID315460922] | TNF reporter robust z-score: 0.45
RSAD2 [SID315460922] | TNF reporter robust z-score: 0.98
RSAD2 [SID315460922] | TNF reporter robust z-score: 1.41
RSAD2 [SID315460922] | TNF reporter robust z-score: 0.7
NUBP1 [SID315450154] | TNF reporter robust z-score: 0.8
NUBP1 [SID315450154] | TNF reporter robust z-score: 0.46
NUBP1 [SID315450154] | TNF reporter robust z-score: 2.22
NUBP1 [SID315450154] | TNF reporter robust z-score: 1.71
PSMC2 [SID315450902] | TNF reporter robust z-score: -1.57 (active)
PSMC2 [SID315450902] | TNF reporter robust z-score: -1.38
PSMC2 [SID315450902] | TNF reporter robust z-score: -1.46
PSMC2 [SID315450902] | TNF reporter robust z-score: -1.2
C16orf54 [SID315463712] | TNF reporter robust z-score: 0.55
C16orf54 [SID315463712] | TNF reporter robust z-score: 0.74
C16orf54 [SID315463712] | TNF reporter robust z-score: 0.59
C16orf54 [SID315463712] | TNF reporter robust z-score: 0.75

Continued.
EEIG2 [SID315463796] | TNF reporter robust z-score: 0.58
EEIG2 [SID315463796] | TNF reporter robust z-score: 0.8
EEIG2 [SID315463796] | TNF reporter robust z-score: 0.87
EEIG2 [SID315463796] | TNF reporter robust z-score: -0.06
C5orf15 [SID315458187] | TNF reporter robust z-score: 0.45
C5orf15 [SID315458187] | TNF reporter robust z-score: 1.32
C5orf15 [SID315458187] | TNF reporter robust z-score: 0.93
C5orf15 [SID315458187] | TNF reporter robust z-score: -0.21
KAT2B [SID315452873] | TNF reporter robust z-score: -0.22
KAT2B [SID315452873] | TNF reporter robust z-score: -0.84
KAT2B [SID315452873] | TNF reporter robust z-score: -0.96
KAT2B [SID315452873] | TNF reporter robust z-score: -1.27
LDB1 [SID315452882] | TNF reporter robust z-score: -0.6
LDB1 [SID315452882] | TNF reporter robust z-score: 0.36
LDB1 [SID315452882] | TNF reporter robust z-score: -0.33
LDB1 [SID315452882] | TNF reporter robust z-score: 0.61
NPL [SID315459836] | TNF reporter robust z-score: -0.28
NPL [SID315459836] | TNF reporter robust z-score: 0.31
NPL [SID315459836] | TNF reporter robust z-score: 0.26
NPL [SID315459836] | TNF reporter robust z-score: 0.23
KCNK12 [SID315458103] | TNF reporter robust z-score: -0.05
KCNK12 [SID315458103] | TNF reporter robust z-score: -0.41
KCNK12 [SID315458103] | TNF reporter robust z-score: 0.43
KCNK12 [SID315458103] | TNF reporter robust z-score: 0.63
ARID4B [SID315456875] | TNF reporter robust z-score: -0.71
ARID4B [SID315456875] | TNF reporter robust z-score: 0.09
ARID4B [SID315456875] | TNF reporter robust z-score: 0.42
ARID4B [SID315456875] | TNF reporter robust z-score: 1.02
ANAPC5 [SID315456708] | TNF reporter robust z-score: 0.07
ANAPC5 [SID315456708] | TNF reporter robust z-score: 1.43
ANAPC5 [SID315456708] | TNF reporter robust z-score: 0.58
ANAPC5 [SID315456708] | TNF reporter robust z-score: -0.51
RNF181 [SID315456586] | TNF reporter robust z-score: -1.38
RNF181 [SID315456586] | TNF reporter robust z-score: 0.32
RNF181 [SID315456586] | TNF reporter robust z-score: -0.46
RNF181 [SID315456586] | TNF reporter robust z-score: 0.21
